Data published in patent US11597748B2 (CAREGEN CO., LTD., priority 2017, dated 2023).

Assay: general procedure: Fmoc solid-phase peptide synthesis; CTC resin; HBTu/HoBt/DIEA
Details: whole synthesis

PEPTIDE1{K.W.G.G.G.R.Y}$$$$V2.0
crude mass: 70.8 g | crude yield (scale of the general procedure 70 g resin): 97.0%

HELM strings list residues between dots; [ac] is acetyl, [am] amide, other brackets name non-standard units.
